Counter-ions that a name gives are not always drawn. The list shows a part of the results. The calls rarely recur for the same compound in another form.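 Kinases, fused to nanoluciferase, were expressed in K562 cells; luminescence was measured every 4 h from 2 to 18 h as percent of control (DMSO = 100%, positive control = 0%). A time point is decreased if signal falls significantly (2 sigma). Hits were called by the authors by a rule that is not shown; the count of time points alone does not decide it.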

Chains of the proteins cited; added tags and fusions are not shown. Lines headed by an entry give the natural chain unless they say otherwise; changes in a name come on top.
UniProt P00519, whole entry: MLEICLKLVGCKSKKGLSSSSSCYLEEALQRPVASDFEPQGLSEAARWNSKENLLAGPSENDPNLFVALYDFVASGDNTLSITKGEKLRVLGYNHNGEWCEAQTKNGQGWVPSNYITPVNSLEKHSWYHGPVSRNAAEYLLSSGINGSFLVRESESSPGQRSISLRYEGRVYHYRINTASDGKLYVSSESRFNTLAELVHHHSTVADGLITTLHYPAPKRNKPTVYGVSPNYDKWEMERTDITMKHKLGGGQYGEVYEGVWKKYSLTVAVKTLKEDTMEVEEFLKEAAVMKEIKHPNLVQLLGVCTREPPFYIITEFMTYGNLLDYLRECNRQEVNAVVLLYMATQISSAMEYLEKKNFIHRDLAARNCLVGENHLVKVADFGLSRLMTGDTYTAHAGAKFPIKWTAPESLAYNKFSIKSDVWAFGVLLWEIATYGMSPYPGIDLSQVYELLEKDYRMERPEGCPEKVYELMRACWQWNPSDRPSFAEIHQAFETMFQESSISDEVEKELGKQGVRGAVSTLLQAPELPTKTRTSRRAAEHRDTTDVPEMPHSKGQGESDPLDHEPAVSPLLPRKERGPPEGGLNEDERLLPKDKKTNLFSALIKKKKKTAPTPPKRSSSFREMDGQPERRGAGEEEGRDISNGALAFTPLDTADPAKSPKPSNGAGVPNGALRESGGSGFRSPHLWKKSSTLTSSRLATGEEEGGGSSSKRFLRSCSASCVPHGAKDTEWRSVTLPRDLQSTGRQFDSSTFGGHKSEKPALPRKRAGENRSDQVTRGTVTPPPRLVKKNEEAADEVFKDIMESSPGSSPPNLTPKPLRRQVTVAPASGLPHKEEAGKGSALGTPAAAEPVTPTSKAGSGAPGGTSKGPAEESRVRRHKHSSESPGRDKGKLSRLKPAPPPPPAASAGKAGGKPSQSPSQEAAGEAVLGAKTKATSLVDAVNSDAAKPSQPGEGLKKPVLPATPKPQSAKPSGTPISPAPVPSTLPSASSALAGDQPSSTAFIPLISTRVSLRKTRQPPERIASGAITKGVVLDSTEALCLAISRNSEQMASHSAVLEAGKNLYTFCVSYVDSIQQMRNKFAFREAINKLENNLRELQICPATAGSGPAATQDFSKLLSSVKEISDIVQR
UniProt P31749: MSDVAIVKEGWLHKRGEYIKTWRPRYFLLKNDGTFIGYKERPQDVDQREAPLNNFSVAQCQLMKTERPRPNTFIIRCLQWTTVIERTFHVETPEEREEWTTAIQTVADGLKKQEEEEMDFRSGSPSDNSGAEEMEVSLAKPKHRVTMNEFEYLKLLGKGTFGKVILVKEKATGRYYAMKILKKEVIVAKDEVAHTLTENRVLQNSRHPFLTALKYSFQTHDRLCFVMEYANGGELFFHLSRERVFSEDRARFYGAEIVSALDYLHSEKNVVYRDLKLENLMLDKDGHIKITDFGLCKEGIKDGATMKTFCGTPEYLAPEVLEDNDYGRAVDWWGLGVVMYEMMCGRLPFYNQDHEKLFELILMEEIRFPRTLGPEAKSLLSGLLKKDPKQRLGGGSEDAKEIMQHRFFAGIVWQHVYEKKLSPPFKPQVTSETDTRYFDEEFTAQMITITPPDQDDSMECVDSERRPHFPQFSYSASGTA

The target in one experiment is ABL1 (UniProt P00519). The experiment can be described thus: kinase-Nluc reporter destabilization hit call (1 = scored as downregulated) (binary); higher = compound decreases kinase abundance. The settings on record: K562; 2-18 h.
Turning to `Cc1c(-c2c(F)cc(C(N)=O)c3[nH]c4c(c23)CC[C@H](C(C)(C)O)C4)cccc1-n1c(=O)c2cccc(F)c2n(C)c1=O` (2.5 µM), the “kinase-Nluc reporter destabilization hit call” value was inactive: 0.

Regarding `c1cncc(CN2CCC(n3ncc4c(N5CCOCC5)nc(-c5ccc6[nH]ccc6c5)nc43)CC2)c1` (10 µM), the “kinase-Nluc reporter destabilization hit call” value was active: 1.

For `Cc1cccc(-c2[nH]ncc2-c2ccc(F)c(-c3cnn(CCO)c3)c2)n1` (10 µM), the “kinase-Nluc reporter destabilization hit call” value was inactive: 0.

On to `COc1cc2nccc(Oc3ccc(NC(=O)NC4CC4)c(Cl)c3)c2cc1C(N)=O` [Lenvatinib (mesylate)] (10 µM), for which the “kinase-Nluc reporter destabilization hit call” value is inactive: 0.

With `COc1cc2c(N3CCN(C(=O)Nc4ccc(OC(C)C)cc4)CC3)ncnc2cc1OCCCN1CCCCC1` [Tandutinib] (10 µM), the “kinase-Nluc reporter destabilization hit call” value is inactive: 0.

In the case of `COc1cccc(OC)c1C(=O)OCc1cc(O)ccc1O[C@@H]1O[C@H](CO)[C@@H](O)[C@H](O)[C@H]1O` [Curculigoside] (10 µM), the “kinase-Nluc reporter destabilization hit call” value was inactive: 0.

Regarding `CNC(=O)c1ccc(C)c(-n2c(C)cc(OCc3ccc(F)cc3F)c(Br)c2=O)c1` (10 µM), the “kinase-Nluc reporter destabilization hit call” value was inactive: 0.

In the case of `C=CC(=O)Nc1cc(C)ccc1Nc1nc(Nc2cc(OC)ncc2C)ncc1C(F)(F)F` (10 µM), the “kinase-Nluc reporter destabilization hit call” value was inactive: 0.

On to `CC(=O)NC1CC(n2cnc(NC(=O)Cc3ccc4ccccc4c3)c2)C1` (configuration not stated) (10 µM), for which the “kinase-Nluc reporter destabilization hit call” value is inactive: 0.

The target of another experiment is AKT1 (UniProt P31749). Described as above. The settings on record: K562; 2-18 h.
In the case of `COc1cc2nccc(Oc3ccc(NC(=O)NC4CC4)c(Cl)c3)c2cc1C(N)=O` [Lenvatinib] (10 µM), the “kinase-Nluc reporter destabilization hit call” value was inactive: 0.

In the case of `COc1ccc2c(OCc3nnc4ccc(-c5ccccc5)nn34)ccnc2c1` (2 µM), the “kinase-Nluc reporter destabilization hit call” value was inactive: 0.

`COc1cc2ncnc(Nc3ccc(Cl)cc3F)c2cc1OC` (10 µM): the “kinase-Nluc reporter destabilization hit call” value is inactive: 0.

In the case of `N#Cc1c(C2CCNCC2)cc(-c2c(O)cccc2OCC2CC2)nc1N` [ACHP (Hydrochloride)] (10 µM), the “kinase-Nluc reporter destabilization hit call” value was inactive: 0.

Regarding `CNC(=O)c1c(F)cccc1Nc1nc(Nc2cc3c(cc2OC)CCN3C(=O)CN(C)C)nc2[nH]ccc12` (10 µM), the “kinase-Nluc reporter destabilization hit call” value was inactive: 0.

As for `COc1cc2c(N3CCN(C(=O)Nc4ccc(OC(C)C)cc4)CC3)ncnc2cc1OCCCN1CCCCC1` [Tandutinib (hydrochloride)] (10 µM), the “kinase-Nluc reporter destabilization hit call” value is inactive: 0.

With `CN1CCN(c2cccc(Nc3nc4c(-c5ccc(S(C)(=O)=O)cc5)cccn4n3)c2)CC1` (10 µM), the “kinase-Nluc reporter destabilization hit call” value was inactive: 0.

As for `Cn1cc(-c2ccc3c(c2)CCN3C(=O)Cc2cccc(C(F)(F)F)c2)c2c(N)ncnc21` (2.5 µM), the “kinase-Nluc reporter destabilization hit call” value was inactive: 0.

For the compound `O=Nc1c(-c2c(O)[nH]c3ccc(F)cc23)[nH]c2ccccc12` [5'-Fluoroindirubinoxime] (10 µM), the “kinase-Nluc reporter destabilization hit call” value was inactive: 0.

For the compound `C=C(CC[C@@H](C(=O)O)[C@H]1[C@H](O)C[C@@]2(C)C3=C(CC[C@]12C)[C@@]1(C)CC[C@H](OC(C)=O)C(C)(C)[C@@H]1CC3)C(C)C` [Pachymic acid] (10 µM), the “kinase-Nluc reporter destabilization hit call” value was inactive: 0.

`Cc1cc(Nc2ncnc3ccc(NC4=NC(C)(C)CO4)cc23)ccc1Oc1ccn2ncnc2c1` [Tucatinib] (2.5 µM): the “kinase-Nluc reporter destabilization hit call” value was inactive: 0.

Take `CCNc1nc(Nc2cc(F)c(C(=O)N3CCOCC3)cc2OC)ncc1C(F)(F)F` [GNE-7915 (tosylate)] (10 µM): the “kinase-Nluc reporter destabilization hit call” value is inactive: 0.

On to `Cc1ccc(C(=O)Nc2ccc(Oc3cc4cnn(C)c4cc3-c3cn[nH]c3)c(F)c2)c(=O)n1-c1ccc(F)cc1` [Merestinib dihydrochloride] (2.5 µM), for which the “kinase-Nluc reporter destabilization hit call” value was inactive: 0.

As to `Nc1ncnc2c1c(-c1cccc(OCc3ccccc3)c1)cn2C1CC(CN2CCC2)C1` (configuration not stated) (2.5 µM), the “kinase-Nluc reporter destabilization hit call” value was inactive: 0.

In the case of `Cn1cnc2c(F)c(Nc3ccc(Br)cc3Cl)c(C(=O)NOCCO)cc21` [Selumetinib (sulfate)] (10 µM), the “kinase-Nluc reporter destabilization hit call” value is inactive: 0.

On to `Cc1cc(Nc2ncnc3ccc(NC4=NC(C)(C)CO4)cc23)ccc1Oc1ccn2ncnc2c1` [Tucatinib (hemiethanolate)] (2.5 µM), for which the “kinase-Nluc reporter destabilization hit call” value was inactive: 0.

Regarding `Cc1cc2ncc(-c3ccc(O)c(O)c3)nc2cc1C` [Tyrphostin AG1433] (10 µM), the “kinase-Nluc reporter destabilization hit call” value was inactive: 0.

Turning to `CCN1CCN(Cc2ccc(Nc3ncc(F)c(-c4cc(F)c5nc(C)n(C(C)C)c5c4)n3)nc2)CC1` [Abemaciclib (methanesulfonate)] (10 µM), the “kinase-Nluc reporter destabilization hit call” value is inactive: 0.

For `Cn1cnc2c(F)c(Nc3ccc(Br)cc3Cl)c(C(=O)NOCCO)cc21` [Selumetinib] (10 µM), the “kinase-Nluc reporter destabilization hit call” value is inactive: 0.

As to `S=C(SSC(=S)N1CCOCC1)N1CCOCC1` (10 µM), the “kinase-Nluc reporter destabilization hit call” value was inactive: 0.

`Cn1nccc1Nc1nccc(-c2ccn([C@H](CO)c3ccc(Cl)c(F)c3)c(=O)c2)n1` [Ravoxertinib hydrochloride] (10 µM): the “kinase-Nluc reporter destabilization hit call” value was inactive: 0.

For the compound `Cc1ccc(C(=O)Nc2ccc(Oc3cc4cnn(C)c4cc3-c3cn[nH]c3)c(F)c2)c(=O)n1-c1ccc(F)cc1` [Merestinib] (2.5 µM), the “kinase-Nluc reporter destabilization hit call” value was inactive: 0.

With `c1ccc(-c2[nH]ncc2-c2ccnc3ccccc23)nc1` (10 µM), the “kinase-Nluc reporter destabilization hit call” value is inactive: 0.

`O=C(CSC1=NCCN1)NC1CCCCCC1` [ICCB-19 (hydrochloride)] (2.5 µM): the “kinase-Nluc reporter destabilization hit call” value is inactive: 0.

Regarding `Cn1cc(-c2cnn3c(N)c(Br)c([C@@H]4CCCNC4)nc23)cn1` (2.5 µM), the “kinase-Nluc reporter destabilization hit call” value is inactive: 0.

In the case of `O=C(Nc1cn[nH]c1-c1ccccn1)c1nn(C2CCNCC2)cc1Cl` (10 µM), the “kinase-Nluc reporter destabilization hit call” value is inactive: 0.

As for `Cc1nc(-c2cn3c(n2)-c2ccc(-c4cnn(C(C)(C)C(N)=O)c4)cc2OCC3)n(C(C)C)n1` [Taselisib] (10 µM), the “kinase-Nluc reporter destabilization hit call” value is inactive: 0.

Turning to `O=C(NCCN1CCOCC1)c1cc2c(Oc3ccc(NC(=O)C4(C(=O)Nc5ccc(F)cc5)CC4)cc3)ccnc2[nH]1` [Tyrosine kinase inhibitor] (10 µM), the “kinase-Nluc reporter destabilization hit call” value is inactive: 0.

`CN(CC(=O)N(Cc1ccc(C2CCCCC2)cc1)c1ccc(C(=O)NO)cc1)S(=O)(=O)c1c(F)c(F)c(F)c(F)c1F` (2.5 µM): the “kinase-Nluc reporter destabilization hit call” value is inactive: 0.

Turning to `Cc1c(-c2c(F)cc(C(N)=O)c3[nH]c4c(c23)CC[C@H](C(C)(C)O)C4)cccc1-n1c(=O)c2cccc(F)c2n(C)c1=O` (2.5 µM), the “kinase-Nluc reporter destabilization hit call” value is inactive: 0.

For `c1cncc(CN2CCC(n3ncc4c(N5CCOCC5)nc(-c5ccc6[nH]ccc6c5)nc43)CC2)c1` (10 µM), the “kinase-Nluc reporter destabilization hit call” value was inactive: 0.

Turning to `Cc1cccc(-c2[nH]ncc2-c2ccc(F)c(-c3cnn(CCO)c3)c2)n1` (10 µM), the “kinase-Nluc reporter destabilization hit call” value was inactive: 0.

Turning to `COc1cc2nccc(Oc3ccc(NC(=O)NC4CC4)c(Cl)c3)c2cc1C(N)=O` [Lenvatinib (mesylate)] (10 µM), the “kinase-Nluc reporter destabilization hit call” value is inactive: 0.

`COc1cc2c(N3CCN(C(=O)Nc4ccc(OC(C)C)cc4)CC3)ncnc2cc1OCCCN1CCCCC1` [Tandutinib] (10 µM): the “kinase-Nluc reporter destabilization hit call” value is inactive: 0.

Regarding `COc1cccc(OC)c1C(=O)OCc1cc(O)ccc1O[C@@H]1O[C@H](CO)[C@@H](O)[C@H](O)[C@H]1O` [Curculigoside] (10 µM), the “kinase-Nluc reporter destabilization hit call” value is inactive: 0.

For `CNC(=O)c1ccc(C)c(-n2c(C)cc(OCc3ccc(F)cc3F)c(Br)c2=O)c1` (10 µM), the “kinase-Nluc reporter destabilization hit call” value is inactive: 0.

Consider `C=CC(=O)Nc1cc(C)ccc1Nc1nc(Nc2cc(OC)ncc2C)ncc1C(F)(F)F` (10 µM), for which the “kinase-Nluc reporter destabilization hit call” value is inactive: 0.

As for `CC(=O)NC1CC(n2cnc(NC(=O)Cc3ccc4ccccc4c3)c2)C1` (configuration not stated) (10 µM), the “kinase-Nluc reporter destabilization hit call” value is inactive: 0.

These data come from the supplement of paper PMC12823440, “Inhibitors supercharge kinase turnover through native proteolytic circuits” (Nature, 2025).
